In PubChem BioAssay AID1508600 (Functional Genomics Laboratory (NCATS/FGL), 2020):
In all, about 53,000 sequences went through this assay and about 3,700 (7%) were called active.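 Rule for the calls: active = gene knockdowns whose robust z-score for IL-1 alpha signal is at least 2 or at most -2, so actives lie on both sides; inactive = the rest.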 The list shows a part of the results.

assay: Components of the Cytosolic LPS Sensing Pathway: Gene Identification via Genome-wide siRNA Screen; settings: RAW264.7 macrophages, IL-1a HTRF, actives lie on both sides, screened at 100 nM (by protocol), cells primed 5 h with Pam3CSK4 first;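 note: robust z of the log signal after scaling to non-targeting control siRNA wells of the plate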
How it was run: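 RAW264.7 mouse macrophages reverse-transfected with single siRNAs (100 nM final) for 48h, primed with Pam3CSK4 for 5 hours, then transfected with LipidA for 24 hour. Supernatant IL-1a read by HTRF; values normalized to negative-control median, log-transformed robust z-scores.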

Sequence | z-score
GGAGUUUGCCAGUCAGAUCTT against Ralgps1 | active: -2.11
GGCCAAUAAAGAAACAAACTT against Cst9 | inactive: 1.08
CCAUGCUUUUGAUUUUAGUTT against Lrig2 | inactive: 0.291
GGUGUUCCACCAGGAUCACTT against Clca3a1 | inactive: 0.667
GUGCUUUCGUGUUUUUCAATT against Klrb1b | inactive: -0.388
GGUACAUUAAGGCACUGGCTT against Mgat5 | inactive: 0.248
GGAUUAUACACACGAAUUUTT against Gosr1 | inactive: 0.646
CCUCAGAAAAAGCCUAUAGTT against Kcnj3 | active: -2.13
GGAUCAAGAUGUUUACUAATT against Nedd1 | inactive: 0.345
AUGUAUUGAGUCAGGCAUCTT against Olfr243 | active: 2.32
GCAUAACUAACCACAUCAATT against Sema5a | inactive: -0.173
CCCAUGGAAAUCCUCAGUATT against Ctsa | active: -2.1
GGAACAGCAGCAGAGUGAATT against Gkap1 | inactive: -1.09
GGAUGAGUGAAGACUUAGCTT against Sag | inactive: 0.286
GGUGCAAGUUCCCAUUAUATT against Tpsab1 | inactive: -0.405
GGGACUUAUACUGAAAUAATT against Eif2ak4 | inactive: 0.771
GGGACAUUCAUAUGUCUAUTT against Vmn2r-ps105 | inactive: 1.19
CCAAUUACCGAAUAAGUUCTT against Map3k12 | inactive: 0.336
GGAAGGUUCAGAAGUGACATT against Strm | inactive: 0.0881
GGUGGUUUGUGAUGAAAAUTT against Pabpc1 | active: 2.11
CCUACUCAGUGACAAAGGATT against Olfr366 | inactive: -0.563
GCGGAUGAUCAAGAAUCGATT against Atf6b | inactive: -0.421
GGUGGACUUGUACCUCUUCTT against Tnks | inactive: -0.0808

Sequence | z-score
CCCUAAUCAAGUUUGCUAUTT against Armc7 | inactive: 1.17
GGGUAUCAUUGUUUACCGATT against Slc25a31 | inactive: 1.41
GGCUGAAGCGCAAGAGGAATT against Wdr46 | active: 2.68
GAAUCCUUGUUCUAUGCUCTT against Vmn1r180 | inactive: 0.366
GGCAAAACUCAUGUUCUUUTT against Prox1 | inactive: 0.283
GCUUGAAUCUCCCAAGAUATT against Kdm4c | inactive: -0.0989
GGGUACAAAACUUGAACUUTT against Gins3 | active: 2.84
GGGAUAGUGUAAGUUAGUUTT against Dppa4 | inactive: -0.0875
GCCCAUAGUAUAAAAUACCTT against Dzip1 | inactive: 1.06
GGAAGAUAUUGCUGUUGGATT against Mbd4 | inactive: 0.823
GCUUACCACUAAGCAUCUUTT against Ctsc | inactive: -1.26
GGACUUUGCACUUCUCACATT against Fut1 | inactive: 0.789
GCGAUCUCACGAGGACUAATT against Tigar | inactive: 0.0244
GGUUAUCACUCCUCAACAATT against Foxp1 | inactive: -1.67
GCCUUCUGGGUAGAAACUGTT against Lcn12 | inactive: -0.834
GCCAGGUGGAUUUGACUAUTT against Ptprv | inactive: -0.739
CCAAAUUUGGCAUUUCUAATT against Slc31a1 | inactive: -0.0725
GGCAAGAACAUUUUAUCAATT against Adamts12 | inactive: -0.0546
CUAGCUUGUGCCGUUCUGATT against Cox14 | inactive: -0.657
CCGUAGGAGAAGAAAUCCGTT against Grap2 | inactive: 0.686
GGUUUACUCAGUUAACAGATT against Tgoln1 | inactive: 0.536
GGCUUUUCACACGAUAGGGTT against Rab9b | inactive: -1.4
CCACCGACUGUGACAUUGUTT against Cngb1 | inactive: 0.86

Sequence | z-score
GGCUUUCAACUCUCAACAGTT against Smg7 | inactive: -1.59
GGUUGUAUUGGAUAUCAAGTT against Ceacam2 | inactive: 0.953
GCACCUCCUUAUGUGUCAUTT against Chrm2 | inactive: 0.729
GGCAGAGUAUGAGUUUGACTT against Camk1 | inactive: 0.699
GGAGAAGACACAGAGAACCTT against Pkd2l1 | inactive: 0.645
GGGCUGAUGAGCAAAGCAUTT against Setd4 | inactive: -1.01
GGAAUUCUUAAGAAGUUACTT against Dsg2 | inactive: 0.857
GGAACUGAGAUCAUUCUGCTT against Olfr140 | inactive: 0.307
GCUUUUCGUUCUUAUACAUTT against Mnx1 | inactive: 1.13
GGUGGUGGCAGAAAUGAAUTT against Dpep2 | inactive: -0.946
GGUUAAAUCGAUUUUGCAUTT against Acbd5 | inactive: -0.185
GGUCAACAGAAUUGAUUCUTT against Cutal | inactive: -0.492
GCCACUCCUAUGAGUGUUATT against Cdk18 | inactive: 0.236
GGCAACAGCAGCUUAUGCCTT against Map3k11 | inactive: 0.122
GGAGCUUUUUUAGUGAUCUTT against Zbtb37 | inactive: -0.891
GGAGAUUCCCGUGGUUAUUTT against Glt8d1 | inactive: 0.909
GGACUUGAAAAUUGUUCUUTT against Cers5 | inactive: 1.31
GCGUGUUCGGUUUACCAAGTT against Ago1 | inactive: 1.35
GGAAUUUUGCCACUAAGAUTT against Pfkm | inactive: -1.21
GGAGCCCAAAAAGAAGAAATT against Mrpl48 | inactive: 0.43
GGAACACUCAGGUCUUUCUTT against Olfr450 | inactive: -1.48
GGACUCUGCCUUUGACCCATT against Myl4 | inactive: -0.529
GCGUAUAAGCUCAGUAGACTT against Phlpp1 | inactive: 1.06

Part of the list above in a different format:
Sequence	z-score
GGUGGUUUGUGAUGAAAAUTT against Pabpc1	active: 2.11
CCUACUCAGUGACAAAGGATT against Olfr366	inactive: -0.563
GCGGAUGAUCAAGAAUCGATT against Atf6b	inactive: -0.421
